In patent US20210348171A1, “PHARMACOPROTEOMICS PLATFORM IDENTIFYING KINOME FEATURES REGULATING DRUG RESPONSE IN CANCER” (University of Washington, priority 2020, published 2021):
For some assays here: At least one structure is not confirmed: it was looked up by name or label, or the drawing left a doubt. Some entries share one result that the patent states for a list of compounds.

What was measured:
Type in all cases: cell-based, Human
[1] = system: FOCUS NUAK1/2 and AXL RNAi cells; experiment: AXL/NUAK RNAi growth inhibition; details: FOCUS NUAK1/2 RNAi cells, 72 h
[2] = system: SNU449 NUAK1/2 RNAi cells; experiment: NUAK RNAi growth inhibition; details: SNU449 NUAK1 or NUAK2 RNAi cells, 72 h
[3] = system: FOCUS, SKHep1, SNU761 RNAi lines; experiment: Drug synergy in AAK1, RALBP1, REPS1, REPS2 knockdown lines (Cell Titer Glo 2.0); details: RNAi lines vs scramble control, 72 hours

Structure (SMILES) | sensitization to kinase inhibition in NUAK1/2 RNAi cells [1] | decrease in EC50s in NUAK RNAi cells vs WT controls [2] | effect of knockdown of AAK1 and interaction partners on drug treatment [3]
CCc1cnn2c(NCc3ccc[n+]([O-])c3)cc(N3CCCC[C@H]3CCO)nc12 [dinaciclib, Dinaciclib] | ≤ 5 fold | 3- to 4 fold | 
NC(=O)Nc1cc(-c2cccc(F)c2)sc1C(=O)N[C@H]1CCCNC1 [AZD7762] | ≤ 5 fold | 3- to 4 fold | 
Cn1cnc2c(F)c(Nc3ccc(Br)cc3Cl)c(C(=O)NOCCO)cc21 [AZD6244, Selumetinib] |  |  | sensitizes
